# According to PubChem BioAssay (NCATS):
# This list was built around the results that the source calls inconclusive (neither active nor inactive); the mix of calls is not that of the screen. Where the call is inconclusive, the potency comes from a doubtful curve fit. Calls of active or inactive are those of the source. The call rests on the fitted dose curve; in most records, active means well fitted cell-killing curve with a large enough effect; inconclusive means small, poorly fitted or top-dose-only effect, or effect the other way; inactive means no such curve, though single readings can be large or run the other way.
# Experiment: Quantitative High-Throughput drug screen in 47 multiple myeloma cell lines against the NCATS MIPE library collection: KMS34_JCRB cell viability assay (AID 1918985); further: nearly all actives have a fitted effect of over 40% in size
# Details: KMS34 myeloma viability, CellTiter-Glo ATP luminescence, 48 h; viability, percent of control: at 45.8 µM (top of the series)
# Outline: (§1)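 ATP-based CellTiter-Glo luminescence after 48 h drug exposure (37 °C, 5% CO2) of 500 myeloma cells per well. DMSO-only wells set 100% viability, media-only wells 0%; MIPE 4.0 library added by pin tool.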
# Potency means the concentration at half of the fitted maximal effect.
row,SMILES,Potency
1,CC(C)C[C@H](NC(=O)c1cc2ccccc2s1)C(=O)N1CCN(C(=O)[C@H](CO)NS(=O)(=O)c2ccc(Cl)cc2Cl)CC1,"inconclusive: 26.4 µM [cytotoxic, single point]"
2,Cc1oc(=O)oc1CN1CCN(c2cc3c(cc2F)c(=O)c(C(=O)O)c2n3C(C)S2)CC1 (stereo not drawn),"inconclusive: 23.5 µM [cytotoxic, single point]"
3,NCc1c[nH]c(=S)n1[C@H]1CCc2c(F)cc(F)cc2C1,active: 20.9 µM
4,COc1cc(CNC(=O)CCCCC=CC(C)C)ccc1O,"inconclusive: 4.18 µM [rising, partial curve, poor fit]"
5,Nc1cccc(S(=O)(=O)N2CCCN(S(=O)(=O)c3ccc4c(c3)OCCO4)CC2)c1,inactive
6,CCn1c(-c2nonc2N)nc2c(C#CC(C)(C)O)ncc(OC[C@H]3CCCNC3)c21,"inconclusive: 1.18 µM [cytotoxic, full curve]"
7,COc1cc2c(c(OC)c1OC)-c1ccc(OC)c(=O)cc1[C@@H](NC(C)=O)CC2,"inconclusive: 0.0264 µM [cytotoxic, partial curve, poor fit]"
8,CCn1c(=O)c2c(nc(C=Cc3ccc(OC)c(OC)c3)n2C)n(CC)c1=O,inactive
9,CCNC(=O)Nc1ccc(Oc2ncnc(N)c2C=NOC)cc1Cl,"inconclusive: 33.2 µM [cytotoxic, partial curve, poor fit]"
10,CC(C)(O)CCc1ccc(OCc2cc(-c3cccc(OC(F)F)c3)c3ncccc3c2)cc1,inactive
11,N#CC(c1ccc(Cl)cc1)c1c(Cl)cc(-n2ncc(=O)[nH]c2=O)cc1Cl (stereo not drawn),"inconclusive: 20.9 µM [cytotoxic, single point]"
12,Cc1ccc2c(=O)c3cccc(CC(=O)O)c3oc2c1C,"inconclusive: 37.2 µM [cytotoxic, single point]"
13,CN(C)CCN(Cc1ccc(Cl)cc1)c1ccccn1,inactive
14,COc1ccc2[nH]cc(CCNC(C)=O)c2c1,"inconclusive: 37.2 µM [cytotoxic, single point]"
15,CN1c2ccccc2C(=O)N2CCc3c([nH]c4ccccc34)C21 (stereo not drawn),"inconclusive: 14.8 µM [cytotoxic, partial curve, poor fit]"
16,CC(=O)N1CCN(c2ccc(OC[C@H]3CO[C@](Cn4ccnc4)(c4ccc(Cl)cc4Cl)O3)cc2)CC1,active: 13.2 µM

row,SMILES,Potency
1,CCN(C)C(=O)Oc1cccc([C@H](C)N(C)C)c1,inactive
2,CCN(CCO)CCCOc1ccc2c(Nc3cc(CC(=O)Nc4cccc(F)c4)[nH]n3)ncnc2c1,inactive
3,N#CC(=C(O)c1ccc(Cl)cc1Cl)c1nc2cc(Cl)ccc2c(=O)[nH]1,inconclusive: 0.001 µM
4,CCCCOCCOc1nc(-c2ccc(C(=O)O)c(F)c2)sc1C,"inconclusive: 4.69 µM [cytotoxic, partial curve, poor fit]"
5,CC(C)(Oc1ccc(C2CC2(Cl)Cl)cc1)C(=O)O (stereo not drawn),"inconclusive: 54 µM [cytotoxic, single point]"
6,CNC(=O)c1cc(Oc2ccc(NC(=O)Nc3ccc(Cl)c(C(F)(F)F)c3)cc2)ccn1,active: 20.9 µM
7,CC(c1cc2ccccc2s1)N(O)C(N)=O (stereo not drawn),"inconclusive: 1.18 µM [cytotoxic, full curve, poor fit]"
8,CN1CCC[C@H]1CCO[C@](C)(c1ccccc1)c1ccc(Cl)cc1,inactive
9,Cn1c(=O)c2c(ncn2CC(O)CO)n(C)c1=O (stereo not drawn),inactive
10,N[C@@H](Cc1ccc(O)c(O)c1)C(=O)O,"inconclusive: 20.9 µM [cytotoxic, partial curve, poor fit]"
11,CON=C(C(=O)N[C@@H]1C(=O)N2C(C(=O)O)=C(Cn3ccc(=N)n3CCO)CS[C@H]12)c1csc(N)n1,inactive
12,O=C(O)CCc1ccc(NCc2cccc(Oc3ccccc3)c2)cc1,inactive
13,Cn1cc(-c2ccncc2)c(-c2ccc(OCc3ccc4ccccc4n3)cc2)n1,"inconclusive: 7.43 µM [cytotoxic, partial curve]"
14,COc1cccc(Nc2c(C(N)=O)cnc3c(C)cc(S(=O)(=O)c4cccc(C(=O)N(C)C)c4)cc23)c1,"inconclusive: 0.0724 µM [rising, full curve, poor fit]"
15,COc1ccc2c(c1OC)C(=O)OC2[C@H]1c2c(cc3c(c2OC)OCO3)CCN1C (stereo partly drawn),active: 0.0372 µM

# Experiment: Quantitative High-Throughput drug screen in 47 multiple myeloma cell lines against the NCATS MIPE library collection: OCIMY7_PLB cell viability assay (AID 1918987); further: nearly all actives have a fitted effect of over 65% in size
# Details: OCI-MY7 myeloma viability, CellTiter-Glo ATP, 48 h; viability (% of DMSO): at 45.8 µM (top of the series)
# Outline: as §1
SMILES,Potency,viability (% of DMSO)
Cc1oc(=O)oc1CN1CCN(c2cc3c(cc2F)c(=O)c(C(=O)O)c2n3C(C)S2)CC1 (stereo not drawn),inactive,
NCc1c[nH]c(=S)n1[C@H]1CCc2c(F)cc(F)cc2C1,"inconclusive: 18.7 µM [cytotoxic, partial curve, poor fit]",
Nc1cccc(S(=O)(=O)N2CCCN(S(=O)(=O)c3ccc4c(c3)OCCO4)CC2)c1,"inconclusive: 11.8 µM [cytotoxic, partial curve, poor fit]",
CCn1c(-c2nonc2N)nc2c(C#CC(C)(C)O)ncc(OC[C@H]3CCCNC3)c21,active: 8.33 µM,
COc1cc2c(c(OC)c1OC)-c1ccc(OC)c(=O)cc1[C@@H](NC(C)=O)CC2,"inconclusive: 0.0021 µM [cytotoxic, partial curve, poor fit]",
Oc1ccc([C@@H]2Oc3ccc(O)cc3[C@@H]3CCC[C@@H]32)cc1,active: 1.18 µM,
CCn1c(=O)c2c(nc(C=Cc3ccc(OC)c(OC)c3)n2C)n(CC)c1=O,"inconclusive: 0.0118 µM [rising, full curve, poor fit]",
CC(C)(O)CCc1ccc(OCc2cc(-c3cccc(OC(F)F)c3)c3ncccc3c2)cc1,"inconclusive: 29.6 µM [cytotoxic, single point]",
N#CC(c1ccc(Cl)cc1)c1c(Cl)cc(-n2ncc(=O)[nH]c2=O)cc1Cl (stereo not drawn),active: 4.69 µM,
CN(C)CCN(Cc1ccc(Cl)cc1)c1ccccn1,active: 14.8 µM,
COc1ccc2[nH]cc(CCNC(C)=O)c2c1,inactive,
CC(=O)N1CCN(c2ccc(OC[C@H]3CO[C@](Cn4ccnc4)(c4ccc(Cl)cc4Cl)O3)cc2)CC1,"inconclusive: 2.35 µM [cytotoxic, partial curve, poor fit]",
CCN(C)C(=O)Oc1cccc([C@H](C)N(C)C)c1,"inconclusive: 0.0166 µM [rising, full curve, poor fit]",
N#CC(=C(O)c1ccc(Cl)cc1Cl)c1nc2cc(Cl)ccc2c(=O)[nH]1,inactive,
CCCCOCCOc1nc(-c2ccc(C(=O)O)c(F)c2)sc1C,"inconclusive: 0.0833 µM [rising, full curve, poor fit]",
CC(C)(Oc1ccc(C2CC2(Cl)Cl)cc1)C(=O)O (stereo not drawn),inactive,
CC(c1cc2ccccc2s1)N(O)C(N)=O (stereo not drawn),"inconclusive: 10.5 µM [cytotoxic, partial curve, poor fit]",
CN1CCC[C@H]1CCO[C@](C)(c1ccccc1)c1ccc(Cl)cc1,"inconclusive: 16.6 µM [cytotoxic, partial curve, poor fit]",
C=CCn1c(=O)c2cnc(Nc3ccc(N4CCN(C)CC4)cc3)nc2n1-c1cccc(C(C)(C)O)n1,"inconclusive: 0.0418 µM [cytotoxic, full curve, poor fit]",
CC(NCCc1ccc(O)cc1)C(O)c1ccc(O)cc1 (stereo not drawn),"inconclusive: 0.0023 µM [rising, full curve, poor fit]",
Cn1c(=O)c2c(ncn2CC(O)CO)n(C)c1=O (stereo not drawn),"inconclusive: 10.5 µM [cytotoxic, single point]",
N[C@@H](Cc1ccc(O)c(O)c1)C(=O)O,inactive,
CON=C(C(=O)N[C@@H]1C(=O)N2C(C(=O)O)=C(Cn3ccc(=N)n3CCO)CS[C@H]12)c1csc(N)n1,"inconclusive: 0.833 µM [rising, full curve, poor fit]",
O=C(O)CCc1ccc(NCc2cccc(Oc3ccccc3)c2)cc1,"inconclusive: 20.9 µM [rising, partial curve, poor fit]",
Cn1cc(-c2ccncc2)c(-c2ccc(OCc3ccc4ccccc4n3)cc2)n1,active: 10.5 µM,
COc1cccc(Nc2c(C(N)=O)cnc3c(C)cc(S(=O)(=O)c4cccc(C(=O)N(C)C)c4)cc23)c1,"inconclusive: 1.44 µM [rising, full curve, poor fit]",
COc1ccc2c(c1OC)C(=O)OC2[C@H]1c2c(cc3c(c2OC)OCO3)CCN1C (stereo partly drawn),,inconclusive: 5.25% [cytotoxic]

# Random excerpt: 2 records from the list.
SMILES,Potency,viability (% of DMSO)
Cn1c(=O)c2c(ncn2CC(O)CO)n(C)c1=O (stereo not drawn),"inconclusive: 10.5 µM [cytotoxic, single point]",
Cn1cc(-c2ccncc2)c(-c2ccc(OCc3ccc4ccccc4n3)cc2)n1,active: 10.5 µM,
